The results in this text go back to paper PMC11092817.

Sequences of proteins named here, by UniProt entry; tags and fusion partners are left off.
UniProt Q96E35: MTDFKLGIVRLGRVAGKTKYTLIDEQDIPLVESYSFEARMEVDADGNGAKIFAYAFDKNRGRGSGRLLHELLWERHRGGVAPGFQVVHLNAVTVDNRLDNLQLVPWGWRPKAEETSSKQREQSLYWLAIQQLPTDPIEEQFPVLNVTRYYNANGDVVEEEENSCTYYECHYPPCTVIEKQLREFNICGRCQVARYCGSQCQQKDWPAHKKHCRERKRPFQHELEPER
UniProt Q8N122: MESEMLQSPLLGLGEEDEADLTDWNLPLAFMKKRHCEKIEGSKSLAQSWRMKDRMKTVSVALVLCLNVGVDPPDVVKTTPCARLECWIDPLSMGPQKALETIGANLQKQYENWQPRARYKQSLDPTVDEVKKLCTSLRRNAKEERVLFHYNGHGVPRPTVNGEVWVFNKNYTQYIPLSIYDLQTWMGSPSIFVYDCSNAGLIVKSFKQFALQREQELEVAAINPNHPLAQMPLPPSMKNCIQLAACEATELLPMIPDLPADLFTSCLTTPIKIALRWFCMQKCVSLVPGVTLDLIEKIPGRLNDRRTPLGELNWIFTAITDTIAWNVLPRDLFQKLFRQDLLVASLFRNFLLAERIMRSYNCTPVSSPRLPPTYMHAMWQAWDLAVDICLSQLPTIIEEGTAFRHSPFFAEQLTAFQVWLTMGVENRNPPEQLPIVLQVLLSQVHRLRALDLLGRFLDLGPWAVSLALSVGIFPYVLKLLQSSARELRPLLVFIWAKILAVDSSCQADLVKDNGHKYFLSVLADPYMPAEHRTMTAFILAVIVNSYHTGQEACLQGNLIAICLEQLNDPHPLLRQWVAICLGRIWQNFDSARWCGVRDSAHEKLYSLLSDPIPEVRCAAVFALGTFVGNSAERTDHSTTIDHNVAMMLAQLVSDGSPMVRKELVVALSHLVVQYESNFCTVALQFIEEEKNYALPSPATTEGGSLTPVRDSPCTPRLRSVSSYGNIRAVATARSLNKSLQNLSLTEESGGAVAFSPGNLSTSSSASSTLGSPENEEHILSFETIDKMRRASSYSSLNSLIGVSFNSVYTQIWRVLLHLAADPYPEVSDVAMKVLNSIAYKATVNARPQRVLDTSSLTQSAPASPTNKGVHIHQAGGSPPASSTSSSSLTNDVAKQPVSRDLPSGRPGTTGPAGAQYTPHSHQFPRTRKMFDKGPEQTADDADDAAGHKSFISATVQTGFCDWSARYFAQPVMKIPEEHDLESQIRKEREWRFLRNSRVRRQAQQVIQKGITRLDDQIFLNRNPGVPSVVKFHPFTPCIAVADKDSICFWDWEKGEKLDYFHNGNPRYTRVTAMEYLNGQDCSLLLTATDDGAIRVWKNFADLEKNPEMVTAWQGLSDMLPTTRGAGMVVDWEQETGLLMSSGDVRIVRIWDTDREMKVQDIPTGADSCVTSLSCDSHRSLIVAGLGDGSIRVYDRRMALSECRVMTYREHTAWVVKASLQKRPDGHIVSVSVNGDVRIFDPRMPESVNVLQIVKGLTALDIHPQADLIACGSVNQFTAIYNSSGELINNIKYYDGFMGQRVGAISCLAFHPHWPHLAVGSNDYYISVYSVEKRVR

No constants are given. Whether binding was seen depends on the method and setting. Binding seen in cells or lysates may run through a third protein. Some results given as binding are weak or reduced against the parent protein; the word gives no strength. For some of these results: Sequences can lack the tags named with a protein.

Assay [1] has as its target FLAG-tagged MKLN1 and ZMYND19, co-expressed (UniProt Q96E35). The assay can be described thus: co-IP; anti-FLAG immunoprecipitation from 293T transiently co-expressing FLAG-tagged ZMYND19 and MKLN1, Myc-tagged Raptor and HA-tagged Rheb or HA-tagged RagA and RagC (wildtype or point mutants) (Fig. 6e).
Assay [2] has as its target V5-tagged full length ZMYND19 (UniProt Q96E35). The assay can be described thus: co-IP; anti-V5-tag magnetic beads, 3 h at 4°C, on lysates (IP lysis buffer) of YCCEL1 stably expressing V5-tagged cDNAs; immunoblot of 5% input vs immunoprecipitate.
In another assay the target is FLAG-tagged ZMYND19 (UniProt Q96E35). Nature of the assay: co-IP; anti-FLAG M2 antibody on protein A/G magnetic beads; lysates of HEK-293T transiently transfected for 24 hours with one FLAG-tagged bait and Raptor-MYC (Fig. 6a).
For the next assay, the target named is T1, FLAG-tagged TMEM192 (UniProt Q8IY95).
T1 sequence: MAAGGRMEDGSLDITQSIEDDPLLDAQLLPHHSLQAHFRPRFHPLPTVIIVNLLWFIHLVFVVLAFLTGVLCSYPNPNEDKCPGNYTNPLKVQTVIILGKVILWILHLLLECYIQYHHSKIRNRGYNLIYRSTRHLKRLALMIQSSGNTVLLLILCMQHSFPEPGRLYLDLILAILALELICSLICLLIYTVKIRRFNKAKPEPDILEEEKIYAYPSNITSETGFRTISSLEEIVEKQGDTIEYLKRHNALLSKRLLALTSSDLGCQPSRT
The assay is described as above.

Regarding “HA-tagged Rheb (from UniProt Q15382 1-184)”, the binding entry in assay [1] is recorded as “no binding”. Consider Raptor (from UniProt Q8N122 1-1335), for which the binding entry in assay [2] is “binds”. Turning to “Myc-tagged Raptor (from UniProt Q8N122 1-1335)”, the figures for the binding entry with FLAG-tagged ZMYND19 and with FLAG-tagged TMEM192 were “binds” and “no binding”, respectively.
